Experimental data as given in patent CN114409766A.
Results are given in words; binding and its absence hold for the method and conditions named. Some entries that bind do so weakly or less than the wild type. Tags and fused reporters may be left off the sequences shown.

Chains of the proteins cited; added tags and fusions are not shown. Residues count along the entry.
UniProt P03200, residues 1-860: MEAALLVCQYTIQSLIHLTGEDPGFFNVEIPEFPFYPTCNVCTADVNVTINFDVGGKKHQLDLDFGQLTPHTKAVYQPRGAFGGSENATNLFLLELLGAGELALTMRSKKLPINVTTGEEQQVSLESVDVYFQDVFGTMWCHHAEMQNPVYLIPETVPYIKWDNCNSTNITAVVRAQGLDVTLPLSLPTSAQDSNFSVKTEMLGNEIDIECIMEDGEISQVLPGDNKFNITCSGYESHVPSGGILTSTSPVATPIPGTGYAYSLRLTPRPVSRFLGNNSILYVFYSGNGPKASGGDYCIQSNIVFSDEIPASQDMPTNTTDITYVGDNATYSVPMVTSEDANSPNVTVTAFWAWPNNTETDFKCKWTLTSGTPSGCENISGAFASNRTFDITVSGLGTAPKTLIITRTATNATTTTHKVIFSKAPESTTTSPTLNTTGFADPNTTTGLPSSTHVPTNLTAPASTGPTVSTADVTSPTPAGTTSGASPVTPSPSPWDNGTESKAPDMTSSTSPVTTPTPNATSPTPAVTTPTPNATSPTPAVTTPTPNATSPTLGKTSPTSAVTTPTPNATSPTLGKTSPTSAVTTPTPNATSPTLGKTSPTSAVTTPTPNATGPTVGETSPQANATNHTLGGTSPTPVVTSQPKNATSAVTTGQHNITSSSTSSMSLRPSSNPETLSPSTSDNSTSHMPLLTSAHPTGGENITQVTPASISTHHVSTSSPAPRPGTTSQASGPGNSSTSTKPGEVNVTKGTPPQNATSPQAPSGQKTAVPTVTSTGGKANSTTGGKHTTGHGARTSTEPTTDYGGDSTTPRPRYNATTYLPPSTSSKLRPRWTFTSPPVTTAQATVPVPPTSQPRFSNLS

B1: 单克隆抗体R1 (scFv fused to FLAG tag or hFc) (scFv)
scFv: QSVKESEGGLFKPTDTLTLTCTVSGFSLSSNAISWVRQAPGNGLEYIGYISYRGNTYYASWARSRSTITRNTNENTVTLKMTRLTAADTATYFCARIRSYSRANGHADGFDPWGPGTLVTVSSGGGGSGGGGSGGGGSDVVMTQTPSSVSAAVGGTVTINCQASESISNLLAWYQQKPGQPPKLLIYGASNLESGVPSRFRGSGSGTQFTLTISGVKDEDVATYYCQSGRYAAGATFGAGTNVEIK
B2: 单克隆抗体R9 (scFv fused to FLAG tag or hFc) (scFv)
scFv: QSVKESEGGLFKPTDTLTLTCTVSGSSLRSYGVSWVRQAPGTGLEWIGAIGRSGSAYYASWAKSRSTITRNTNDNTVTLKMTSLTAADTATYFCARAYFGNSIGPFNIWGPGTLVTVSSGGGGSGGGGSGGGGSAIVLTQTPSSVSAPVGGTVTINCQASQSVSNLLAWYQQKPGQPPKLLIYGASNLESGVPSRFRGSGSGTQFTLTISGVKAEDVAAYYCHQHSSFPLTFGAGTKVEIK

What was measured:
[1] = target: gp350-hFc (Epstein-Barr virus) (UniProt P03200); experiment: ELISA, gp350-hFc coated, titrated binder
[2] = target: 重组的gp350蛋白 (Epstein-Barr virus) (UniProt P03200); experiment: phage display, 4 rounds of affinity selection

Binder	binding [1]	binding [2]
B1	binds	binds
B2	binds	binds
